From the supplement of paper PMC10849652
This is one part of the list.

Amino acid sequences for entries named in this document (tags omitted). A change or cut given only in a name is not applied to a line headed by its entry.
UniProt P54707, whole entry, looked up: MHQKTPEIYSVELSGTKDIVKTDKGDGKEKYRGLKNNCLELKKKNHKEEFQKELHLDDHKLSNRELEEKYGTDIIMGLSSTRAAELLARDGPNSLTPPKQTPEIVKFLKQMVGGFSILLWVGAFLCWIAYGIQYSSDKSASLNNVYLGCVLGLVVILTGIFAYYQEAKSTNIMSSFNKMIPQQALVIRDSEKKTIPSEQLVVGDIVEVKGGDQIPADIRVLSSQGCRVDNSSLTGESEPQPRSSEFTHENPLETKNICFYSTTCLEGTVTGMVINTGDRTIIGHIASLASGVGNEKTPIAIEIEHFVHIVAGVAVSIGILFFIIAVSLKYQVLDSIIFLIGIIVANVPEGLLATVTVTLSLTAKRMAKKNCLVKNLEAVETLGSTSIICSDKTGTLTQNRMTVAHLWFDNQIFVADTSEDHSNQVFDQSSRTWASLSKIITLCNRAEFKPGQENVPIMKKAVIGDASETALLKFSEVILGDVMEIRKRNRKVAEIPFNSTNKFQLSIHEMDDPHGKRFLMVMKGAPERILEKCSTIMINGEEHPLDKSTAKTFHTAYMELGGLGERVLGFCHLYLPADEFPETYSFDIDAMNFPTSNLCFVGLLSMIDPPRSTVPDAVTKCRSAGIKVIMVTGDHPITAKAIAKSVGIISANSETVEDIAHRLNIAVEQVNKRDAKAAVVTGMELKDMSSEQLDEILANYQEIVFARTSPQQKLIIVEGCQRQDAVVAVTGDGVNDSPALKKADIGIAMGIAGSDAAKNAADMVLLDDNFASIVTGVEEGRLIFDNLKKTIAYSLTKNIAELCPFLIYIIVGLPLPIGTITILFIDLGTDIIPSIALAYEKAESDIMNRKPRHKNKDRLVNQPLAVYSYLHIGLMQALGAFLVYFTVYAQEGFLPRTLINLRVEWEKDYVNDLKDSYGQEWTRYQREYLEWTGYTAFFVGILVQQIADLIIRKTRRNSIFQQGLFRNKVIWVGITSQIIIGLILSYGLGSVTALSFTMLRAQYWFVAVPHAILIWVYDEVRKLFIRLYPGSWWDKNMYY
UniProt P98198: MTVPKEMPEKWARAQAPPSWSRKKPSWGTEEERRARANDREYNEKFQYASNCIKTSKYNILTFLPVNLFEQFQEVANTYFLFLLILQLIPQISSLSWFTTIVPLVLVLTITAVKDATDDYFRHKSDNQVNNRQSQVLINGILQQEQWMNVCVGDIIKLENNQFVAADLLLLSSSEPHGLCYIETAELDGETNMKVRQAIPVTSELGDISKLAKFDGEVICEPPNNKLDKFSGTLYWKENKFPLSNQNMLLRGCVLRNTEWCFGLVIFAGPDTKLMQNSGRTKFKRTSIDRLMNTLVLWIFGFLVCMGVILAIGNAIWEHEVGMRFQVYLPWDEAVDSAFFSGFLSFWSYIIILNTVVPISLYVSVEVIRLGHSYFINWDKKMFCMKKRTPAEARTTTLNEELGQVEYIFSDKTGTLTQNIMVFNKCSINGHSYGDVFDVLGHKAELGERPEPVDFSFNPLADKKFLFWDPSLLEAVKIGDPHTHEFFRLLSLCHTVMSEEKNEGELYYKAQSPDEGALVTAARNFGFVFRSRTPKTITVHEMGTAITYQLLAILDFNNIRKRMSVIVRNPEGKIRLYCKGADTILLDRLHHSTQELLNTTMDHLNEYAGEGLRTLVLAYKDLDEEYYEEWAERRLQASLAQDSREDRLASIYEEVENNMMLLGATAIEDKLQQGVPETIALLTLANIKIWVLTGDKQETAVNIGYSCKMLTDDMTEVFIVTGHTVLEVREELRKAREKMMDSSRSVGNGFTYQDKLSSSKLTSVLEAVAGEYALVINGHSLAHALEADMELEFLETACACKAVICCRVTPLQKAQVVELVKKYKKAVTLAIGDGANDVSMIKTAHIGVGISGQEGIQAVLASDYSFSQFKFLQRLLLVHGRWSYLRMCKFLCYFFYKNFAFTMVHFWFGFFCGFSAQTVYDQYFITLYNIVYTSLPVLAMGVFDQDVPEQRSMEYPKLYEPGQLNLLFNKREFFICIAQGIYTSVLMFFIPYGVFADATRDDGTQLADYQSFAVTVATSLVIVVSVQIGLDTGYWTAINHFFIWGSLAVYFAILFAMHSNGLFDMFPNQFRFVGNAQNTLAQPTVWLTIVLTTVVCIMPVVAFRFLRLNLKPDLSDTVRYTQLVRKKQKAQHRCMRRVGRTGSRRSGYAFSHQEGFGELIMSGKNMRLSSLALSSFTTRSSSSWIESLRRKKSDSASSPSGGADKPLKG
UniProt Q9NWL6: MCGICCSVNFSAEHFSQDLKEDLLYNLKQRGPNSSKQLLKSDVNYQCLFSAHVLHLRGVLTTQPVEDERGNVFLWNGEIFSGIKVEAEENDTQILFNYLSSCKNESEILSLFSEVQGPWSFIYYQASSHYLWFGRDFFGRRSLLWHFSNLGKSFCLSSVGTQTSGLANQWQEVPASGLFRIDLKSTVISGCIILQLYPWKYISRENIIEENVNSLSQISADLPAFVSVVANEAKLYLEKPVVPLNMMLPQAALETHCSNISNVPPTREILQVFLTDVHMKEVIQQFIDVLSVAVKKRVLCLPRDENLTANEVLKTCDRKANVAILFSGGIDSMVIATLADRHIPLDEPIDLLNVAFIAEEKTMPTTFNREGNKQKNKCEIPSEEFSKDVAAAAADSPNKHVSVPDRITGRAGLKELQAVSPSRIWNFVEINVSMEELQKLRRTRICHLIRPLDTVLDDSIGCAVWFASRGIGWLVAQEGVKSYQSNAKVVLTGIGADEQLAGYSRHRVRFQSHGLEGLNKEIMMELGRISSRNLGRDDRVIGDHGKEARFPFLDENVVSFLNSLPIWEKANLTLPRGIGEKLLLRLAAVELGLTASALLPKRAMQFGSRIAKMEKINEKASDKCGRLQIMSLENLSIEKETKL
UniProt Q01814: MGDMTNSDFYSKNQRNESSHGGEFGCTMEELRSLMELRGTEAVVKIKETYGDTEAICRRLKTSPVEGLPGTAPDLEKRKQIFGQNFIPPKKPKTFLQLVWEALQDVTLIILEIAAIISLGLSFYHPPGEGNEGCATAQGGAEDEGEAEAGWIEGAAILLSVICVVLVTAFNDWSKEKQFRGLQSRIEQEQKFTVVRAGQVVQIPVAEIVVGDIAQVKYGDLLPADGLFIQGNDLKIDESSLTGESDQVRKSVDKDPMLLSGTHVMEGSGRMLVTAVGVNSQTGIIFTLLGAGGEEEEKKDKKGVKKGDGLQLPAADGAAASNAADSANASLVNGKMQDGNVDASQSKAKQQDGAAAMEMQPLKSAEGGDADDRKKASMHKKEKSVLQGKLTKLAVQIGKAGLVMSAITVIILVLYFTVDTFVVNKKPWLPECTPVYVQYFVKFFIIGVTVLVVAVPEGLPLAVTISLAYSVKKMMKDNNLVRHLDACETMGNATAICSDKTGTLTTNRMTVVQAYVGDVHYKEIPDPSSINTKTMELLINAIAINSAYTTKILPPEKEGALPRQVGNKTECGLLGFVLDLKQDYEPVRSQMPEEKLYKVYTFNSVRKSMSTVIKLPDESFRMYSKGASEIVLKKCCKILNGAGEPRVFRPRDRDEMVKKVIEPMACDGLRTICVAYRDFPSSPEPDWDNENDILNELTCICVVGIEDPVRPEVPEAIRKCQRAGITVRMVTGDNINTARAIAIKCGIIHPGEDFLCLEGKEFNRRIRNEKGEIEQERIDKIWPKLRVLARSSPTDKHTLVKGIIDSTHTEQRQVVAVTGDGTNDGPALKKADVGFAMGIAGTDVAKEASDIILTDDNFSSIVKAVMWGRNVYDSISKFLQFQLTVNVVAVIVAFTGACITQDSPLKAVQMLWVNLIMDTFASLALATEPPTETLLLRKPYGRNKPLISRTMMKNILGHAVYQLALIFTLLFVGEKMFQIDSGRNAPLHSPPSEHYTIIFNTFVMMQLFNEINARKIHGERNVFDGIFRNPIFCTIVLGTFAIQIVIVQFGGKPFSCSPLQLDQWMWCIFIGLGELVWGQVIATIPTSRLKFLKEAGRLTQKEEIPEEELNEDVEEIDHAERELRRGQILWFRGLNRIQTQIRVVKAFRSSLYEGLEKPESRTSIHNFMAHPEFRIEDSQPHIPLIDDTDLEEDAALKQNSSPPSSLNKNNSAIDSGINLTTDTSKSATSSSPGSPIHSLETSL
UniProt Q9H0Y0: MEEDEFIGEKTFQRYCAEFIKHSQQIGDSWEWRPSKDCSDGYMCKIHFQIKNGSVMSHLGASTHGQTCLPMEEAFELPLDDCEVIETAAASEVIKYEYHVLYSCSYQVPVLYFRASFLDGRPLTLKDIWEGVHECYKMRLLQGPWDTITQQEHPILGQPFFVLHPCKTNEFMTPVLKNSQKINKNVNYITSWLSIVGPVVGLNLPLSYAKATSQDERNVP
UniProt P27449, whole entry, looked up: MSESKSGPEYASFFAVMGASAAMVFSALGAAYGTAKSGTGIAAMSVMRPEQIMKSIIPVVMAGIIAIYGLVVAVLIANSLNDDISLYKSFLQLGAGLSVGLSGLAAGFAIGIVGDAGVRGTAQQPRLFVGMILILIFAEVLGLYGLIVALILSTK
UniProt Q9NVP2, whole entry, looked up: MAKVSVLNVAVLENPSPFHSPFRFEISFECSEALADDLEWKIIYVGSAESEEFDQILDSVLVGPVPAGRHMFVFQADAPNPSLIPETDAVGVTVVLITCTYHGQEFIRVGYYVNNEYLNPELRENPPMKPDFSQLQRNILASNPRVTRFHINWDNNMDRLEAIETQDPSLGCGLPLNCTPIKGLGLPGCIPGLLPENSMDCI
UniProt Q9NWX5: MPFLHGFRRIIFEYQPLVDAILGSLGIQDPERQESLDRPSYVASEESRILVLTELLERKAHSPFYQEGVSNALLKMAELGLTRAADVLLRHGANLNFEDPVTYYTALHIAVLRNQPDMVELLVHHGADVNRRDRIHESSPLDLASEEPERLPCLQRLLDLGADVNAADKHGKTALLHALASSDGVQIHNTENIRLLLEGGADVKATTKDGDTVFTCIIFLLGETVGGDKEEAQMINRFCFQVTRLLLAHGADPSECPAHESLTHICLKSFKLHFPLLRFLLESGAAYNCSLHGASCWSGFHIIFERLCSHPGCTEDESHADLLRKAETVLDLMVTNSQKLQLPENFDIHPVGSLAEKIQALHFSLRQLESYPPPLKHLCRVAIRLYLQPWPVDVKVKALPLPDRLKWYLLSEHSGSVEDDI
UniProt O95260: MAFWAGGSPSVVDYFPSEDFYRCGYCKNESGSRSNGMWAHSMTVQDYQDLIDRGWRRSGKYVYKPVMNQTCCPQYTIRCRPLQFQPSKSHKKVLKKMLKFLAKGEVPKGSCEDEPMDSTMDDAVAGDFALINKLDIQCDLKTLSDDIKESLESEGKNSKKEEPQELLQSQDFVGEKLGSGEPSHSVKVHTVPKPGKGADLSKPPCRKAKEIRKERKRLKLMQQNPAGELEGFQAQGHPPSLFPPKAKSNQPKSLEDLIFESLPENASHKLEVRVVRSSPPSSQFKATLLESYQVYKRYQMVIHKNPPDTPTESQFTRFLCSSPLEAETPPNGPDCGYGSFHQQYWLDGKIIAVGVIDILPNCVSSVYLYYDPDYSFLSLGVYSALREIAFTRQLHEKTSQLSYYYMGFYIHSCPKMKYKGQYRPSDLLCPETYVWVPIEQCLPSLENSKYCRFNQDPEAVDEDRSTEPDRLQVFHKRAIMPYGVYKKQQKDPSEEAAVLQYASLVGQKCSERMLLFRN
UniProt P18846: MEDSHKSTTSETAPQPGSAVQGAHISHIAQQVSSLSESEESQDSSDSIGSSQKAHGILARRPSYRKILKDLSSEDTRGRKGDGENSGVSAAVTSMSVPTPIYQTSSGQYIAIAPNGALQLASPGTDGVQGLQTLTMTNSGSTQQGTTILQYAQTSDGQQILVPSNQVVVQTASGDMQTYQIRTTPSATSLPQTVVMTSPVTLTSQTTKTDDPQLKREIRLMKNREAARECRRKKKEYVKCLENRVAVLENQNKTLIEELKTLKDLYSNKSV
UniProt Q8IUR7, whole entry, looked up: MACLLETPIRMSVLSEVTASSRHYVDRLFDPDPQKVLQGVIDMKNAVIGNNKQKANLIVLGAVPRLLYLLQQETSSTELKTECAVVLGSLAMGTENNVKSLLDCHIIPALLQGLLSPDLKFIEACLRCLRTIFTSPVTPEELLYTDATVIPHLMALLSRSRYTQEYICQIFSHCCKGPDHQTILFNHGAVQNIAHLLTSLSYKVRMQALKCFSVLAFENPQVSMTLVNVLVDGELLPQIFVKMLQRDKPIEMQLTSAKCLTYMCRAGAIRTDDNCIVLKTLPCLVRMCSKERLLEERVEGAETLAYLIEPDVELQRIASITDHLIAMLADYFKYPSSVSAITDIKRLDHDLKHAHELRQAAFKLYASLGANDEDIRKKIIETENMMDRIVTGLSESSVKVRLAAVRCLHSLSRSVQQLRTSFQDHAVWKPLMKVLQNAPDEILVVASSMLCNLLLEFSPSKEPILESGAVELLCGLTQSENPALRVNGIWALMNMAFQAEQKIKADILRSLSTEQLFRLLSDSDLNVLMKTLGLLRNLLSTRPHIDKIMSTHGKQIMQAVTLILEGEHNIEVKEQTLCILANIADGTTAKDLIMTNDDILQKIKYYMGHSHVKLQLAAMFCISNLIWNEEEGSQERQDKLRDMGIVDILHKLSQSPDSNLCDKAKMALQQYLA

Tests used:
Assay in all cases: log2 fold change, soluble protein after heating vs DMSO (PISA); higher = thermal stabilisation; K562 cells, 10 uM, 30 min; active = over 0.2 and 3.5 SD of the protein, either way, in both replicates (recomputed)
volasertib = compound: CC[C@@H]1C(=O)N(C)c2cnc(Nc3ccc(C(=O)N[C@H]4CC[C@H](N5CCN(CC6CC6)CC5)CC4)cc3OC)nc2N1C(C)C [volasertib]
Summary of the method: (§1)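 Quantification of soluble protein used TMTpro 16plex LC-MS/MS, with channel sums equalised. Samples were the supernatant after 21,000xg for 90 min of pooled aliquots from K562 cells (2×10^6 cells/mL) treated with 10 μM compound for 30 min, heated for 3 min over 48°C-58°C, and extracted in PBS with 0.5% NP-40 at 4°C. Values, from duplicates, describe thermal stability against control samples on a log2 fold-change scale.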

[1] = compound: CC[C@H](C)N1C=C(C2=C(C=C(C=C21)C3=CN=C(C=C3)N4CCNCC4)C(=O)NCC5=C(C=C(NC5=O)C)C)C
Summary of the method: as §1

epoxomicin = compound: CC[C@H](C)[C@@H](C(=O)N[C@@H]([C@@H](C)O)C(=O)N[C@@H](CC(C)C)C(=O)[C@]1(CO1)C)NC(=O)[C@H]([C@@H](C)CC)N(C)C(=O)C [epoxomicin]
Summary of the method: as §1

[2] = compound: CCn1c(C(=O)N(C2CC2)C2CC2)cc2c3c(ncn3C)c(Nc3cc(C)n(C)n3)nc21
Summary of the method: as §1

[3] = compound: CCn1cc(-c2ccnc3[nH]c(-c4cccc(CN(C)C)c4)cc23)c(-c2ccc(NC(=O)N(C)C)cc2)n1
Summary of the method: as §1

[4] = compound: CN(C)CC(=O)Nc1ccc2[nH]c(=O)c3ccccc3c2c1
Summary of the method: as §1

rosiglitazone = compound: CN(CCOC1=CC=C(C=C1)C[C@H]2C(=O)NC(=O)S2)C3=CC=CC=N3 (racemic) [rosiglitazone]
Summary of the method: as §1

[5] = compound: CN1C2=C(C3=C1C(=O)N(N=C3)CC4=CC(=CC=C4)N)SC(=C2)S(=O)C
Summary of the method: as §1

[6] = compound: CN1CCC(CNc2ccc3ncc(-c4cccc(OC(F)(F)F)c4)n3n2)CC1
Summary of the method: as §1

saracatinib = compound: CN1CCN(CCOc2cc(OC3CCOCC3)c3c(Nc4c(Cl)ccc5c4OCO5)ncnc3c2)CC1 [saracatinib]
Summary of the method: as §1

sotrastaurin = compound: CN1CCN(c2nc(C3=C(c4c[nH]c5ccccc45)C(=O)NC3=O)c3ccccc3n2)CC1 [sotrastaurin]
Summary of the method: as §1

alvocidib = compound: CN1CC[C@H](c2c(O)cc(O)c3c(=O)cc(-c4ccccc4Cl)oc23)[C@H](O)C1 [alvocidib]
Summary of the method: as §1

Tubastatin A = compound: CN1CCc2c(c3ccccc3n2Cc2ccc(C(=O)NO)cc2)C1 [Tubastatin A]
Summary of the method: as §1

[7] = compound: CNC(=O)C1=CC=CC=C1NC2=NC(=NC=C2Cl)NC3=C(C=C(C=C3)N4CCOCC4)OC
Summary of the method: as §1

defactinib = compound: CNC(=O)c1ccc(Nc2ncc(C(F)(F)F)c(NCc3nccnc3N(C)S(C)(=O)=O)n2)cc1 [defactinib]
Summary of the method: as §1

[8] = compound: CNc1nc(-c2ccc3c(N)n[nH]c3c2)cc(N2C[C@@H](C(=O)NC3CCCCC3)CC[C@H]2C)n1
Summary of the method: as §1

[9] = compound: COC(=O)[C@H](CCSC)NC(=O)C1=C(C=C(C=C1)NC[C@H](CS)N)C2=CC=CC=C2
Summary of the method: as §1

[10] = compound: CC[C@@H]1C(=O)N(C)c2cnc(Nc3ccc(C(=O)NC4CCN(C)CC4)cc3OC)nc2N1C1CCCC1
Summary of the method: as §1

rucaparib = compound: CNCc1ccc(-c2[nH]c3cc(F)cc4c3c2CCNC4=O)cc1 [rucaparib]
Summary of the method: as §1

encorafenib = compound: COC(=O)N[C@@H](C)CNc1nccc(-c2cn(C(C)C)nc2-c2cc(Cl)cc(NS(C)(=O)=O)c2F)n1 [encorafenib]
Summary of the method: as §1

Target | log2 fold change (volasertib) | log2 fold change [1] | log2 fold change (epoxomicin) | log2 fold change [2] | log2 fold change [3] | log2 fold change [4] | log2 fold change (rosiglitazone) | log2 fold change [5] | log2 fold change [6] | log2 fold change (saracatinib) | log2 fold change (sotrastaurin) | log2 fold change (alvocidib) | log2 fold change (Tubastatin A) | log2 fold change [7] | log2 fold change (defactinib) | log2 fold change [8] | log2 fold change [9] | log2 fold change [10] | log2 fold change (rucaparib) | log2 fold change (encorafenib)
ARL5B (UniProt Q96KC2) | inactive: -0.05 | inactive: 0.076 | inactive: -0.124 | inactive: 0.006 | inactive: 0.029 | inactive: 0.17 | inactive: 0.134 | inactive: -0.068 | inactive: 0.111 | inactive: 0.03 | inactive: -0.017 | inactive: -0.009 | inactive: 0 | inactive: 0 | inactive: -0.072 | inactive: -0.06 | inactive: -0.07 |  |  | 
ATP12A isoform 2 (UniProt P54707) | inactive: 0 | inactive: -0.029 | inactive: 0.013 |  | inactive: -0.031 | inactive: -0.047 |  | inactive: -0.085 | active: 0.242 | inactive: 0.011 | inactive: 0.031 |  | inactive: -0.019 | inactive: 0.002 | inactive: -0.072 | inactive: 0.023 | inactive: -0.005 | inactive: 0.081 | inactive: -0.027 | inactive: -0.015
ATP8B2 isoform 3 (UniProt P98198) |  |  |  |  |  | inactive: -0.162 |  |  |  |  |  |  |  |  | inactive: 0.018 |  | inactive: 0.063 |  |  | 
ASNSD1 (UniProt Q9NWL6) |  | inactive: 0.091 | inactive: -0.006 |  |  |  | inactive: -0.112 |  |  |  | inactive: -0.119 |  |  |  |  |  |  |  |  | 
ARPIN isoform 2 (UniProt Q7Z6K5) | inactive: -0.361 | inactive: 0.133 |  | inactive: -0.045 | inactive: -0.053 | inactive: 0 | inactive: 0.145 |  | inactive: -0.16 |  |  |  | inactive: 0.003 | inactive: -0.027 | inactive: -0.173 |  | inactive: 0.005 |  |  | 
ATP5F1B (UniProt H0YI37) | inactive: 0.189 |  | inactive: -0.36 |  | inactive: 0.044 | inactive: 0.066 | inactive: 0.052 | inactive: 0.283 | inactive: -0.373 | inactive: -0.11 | inactive: 0.325 |  |  |  | inactive: 0.193 | inactive: -0.128 | inactive: -0.127 | inactive: 0.083 | inactive: 0.26 | inactive: -0.28
ATP2B2 (UniProt Q01814) | inactive: -0.227 |  |  | inactive: -0.118 | inactive: -0.151 | inactive: 0.218 |  | inactive: -0.065 | inactive: 0.015 | inactive: -0.008 | inactive: 0.117 | inactive: -0.218 |  | inactive: 0.043 | inactive: 0.047 | inactive: 0.279 | inactive: -0.164 |  |  | 
ATG10 (UniProt Q9H0Y0) |  | inactive: -0.014 | inactive: -0.018 | inactive: -0.087 | inactive: -0.01 | inactive: -0.366 | inactive: -0.132 |  | inactive: -0.563 |  |  |  | inactive: -0.175 | inactive: -0.141 | inactive: 0.042 |  | inactive: 0 |  |  | 
ATP6V0C (UniProt P27449) | inactive: -0.049 | inactive: -0.082 | inactive: -0.068 | inactive: 0.038 | inactive: -0.126 | inactive: 0.073 | inactive: -0.096 | inactive: -0.052 | inactive: 0.059 | inactive: 0.067 | inactive: -0.261 | inactive: 0.087 | inactive: 0.34 | inactive: 0.213 | inactive: -0.121 | inactive: 0.004 | inactive: 0.026 |  |  | 
ASF1B (UniProt Q9NVP2) | inactive: -0.269 | inactive: 0.147 | inactive: -0.058 | inactive: -0.007 | inactive: 0.081 | inactive: -0.011 | inactive: 0.048 | inactive: -0.013 | inactive: -0.088 | inactive: -0.143 | inactive: -0.375 | inactive: -0.03 | inactive: 0.085 | inactive: 0.003 | inactive: -0.15 | inactive: -0.036 | inactive: 0.05 |  |  | 
ASB6 (UniProt Q9NWX5) | inactive: -0.321 | inactive: 0.028 | inactive: -0.094 |  | inactive: -0.076 | inactive: 0.041 |  |  | inactive: -0.083 |  | inactive: -0.029 |  |  | inactive: -0.078 | inactive: -0.033 |  | inactive: 0.031 | inactive: 0.047 | inactive: 0.124 | inactive: -0.094
ASCC2 (UniProt Q9H1I8) |  |  | inactive: 0.027 | inactive: -0.049 |  | inactive: -0.098 |  | inactive: 0.186 |  | inactive: -0.094 | inactive: -0.275 | inactive: 0.243 |  | inactive: -0.124 | inactive: 0.104 | inactive: 0.045 | inactive: 0.24 | inactive: 0.018 | inactive: 0.097 | inactive: -0.071
ASXL2 (UniProt Q76L83) |  |  |  | inactive: 0.169 |  |  |  | inactive: 0.198 |  | inactive: -0.211 |  |  |  | inactive: -0.466 |  | inactive: 0.165 |  |  |  | 
ATE1 (UniProt O95260) | inactive: 0.022 |  | inactive: 0.07 |  |  | inactive: 0.098 |  | inactive: 0.258 |  | inactive: 0.105 |  | inactive: 0.058 | inactive: -0.296 |  | inactive: -0.219 | inactive: -0.04 | inactive: 0.103 | inactive: 0.05 | inactive: 0.068 | inactive: -0.18
ATF1 (UniProt P18846) | inactive: 0.109 | inactive: -0.065 | inactive: 0.17 |  | inactive: 0.035 | inactive: 0.002 |  |  | inactive: -0.002 |  | inactive: -0.098 |  | inactive: -0.068 | inactive: -0.052 | inactive: 0.045 |  | inactive: 0.024 | inactive: 0 | inactive: -0.128 | inactive: -0.07
ATP5F1B (UniProt F8W0P7) | inactive: 0.172 | inactive: -0.15 | inactive: 0.103 |  |  |  | inactive: -0.1 | inactive: -0.106 |  | inactive: -0.011 | inactive: -0.013 |  | inactive: 0.132 |  |  | inactive: 0.124 |  |  |  | 
ARMC8 isoform 6 (UniProt Q8IUR7) |  | inactive: 0.048 |  |  |  | inactive: 0.016 |  |  |  |  |  |  |  | inactive: -0.088 | inactive: -0.114 |  | inactive: 0.108 |  |  | 
ATP1A2 (UniProt P50993) |  |  |  |  |  |  |  | inactive: -0.377 |  | inactive: -0.238 |  |  |  |  |  | inactive: -0.246 |  |  |  | 
ATP1B1 (UniProt P05026) | inactive: 0.006 | inactive: 0.034 |  | inactive: 0.019 | inactive: -0.067 | inactive: 0.001 | inactive: 0.037 | inactive: -0.042 | inactive: 0.089 | inactive: -0.032 | inactive: 0.037 | inactive: -0.066 | inactive: 0.012 | inactive: -0.125 | inactive: -0.148 | inactive: -0.015 | inactive: -0.039 | inactive: 0.094 | inactive: -0.031 | inactive: -0.088

Quoted from the results shown (three entries):
Target | log2 fold change (volasertib) | log2 fold change [1] | log2 fold change (epoxomicin) | log2 fold change [2] | log2 fold change [3] | log2 fold change [4] | log2 fold change (rosiglitazone) | log2 fold change [5] | log2 fold change [6] | log2 fold change (saracatinib) | log2 fold change (sotrastaurin) | log2 fold change (alvocidib) | log2 fold change (Tubastatin A) | log2 fold change [7] | log2 fold change (defactinib) | log2 fold change [8] | log2 fold change [9] | log2 fold change [10] | log2 fold change (rucaparib) | log2 fold change (encorafenib)
ATP12A isoform 2 (UniProt P54707) | inactive: 0 | inactive: -0.029 | inactive: 0.013 |  | inactive: -0.031 | inactive: -0.047 |  | inactive: -0.085 | active: 0.242 | inactive: 0.011 | inactive: 0.031 |  | inactive: -0.019 | inactive: 0.002 | inactive: -0.072 | inactive: 0.023 | inactive: -0.005 | inactive: 0.081 | inactive: -0.027 | inactive: -0.015
ATP8B2 isoform 3 (UniProt P98198) |  |  |  |  |  | inactive: -0.162 |  |  |  |  |  |  |  |  | inactive: 0.018 |  | inactive: 0.063 |  |  | 
ASNSD1 (UniProt Q9NWL6) |  | inactive: 0.091 | inactive: -0.006 |  |  |  | inactive: -0.112 |  |  |  | inactive: -0.119 |  |  |  |  |  |  |  |  | 
